The list shows a part of the results.

Chains of the proteins cited; added tags and fusions are not shown.
UniProt Q0JBA9, entry or part of it: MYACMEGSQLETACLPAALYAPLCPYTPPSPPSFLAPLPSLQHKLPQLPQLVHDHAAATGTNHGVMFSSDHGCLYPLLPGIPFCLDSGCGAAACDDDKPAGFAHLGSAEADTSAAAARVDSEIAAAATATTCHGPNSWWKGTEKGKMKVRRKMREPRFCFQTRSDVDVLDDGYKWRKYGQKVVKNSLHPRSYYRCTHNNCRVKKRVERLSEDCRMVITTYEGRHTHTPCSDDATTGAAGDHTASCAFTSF

This experiment has as its target OsWRKY34 (Oryza sativa, UniProt Q0JBA9 1-250). The experiment can be described thus: protein-binding microarray (RPBM); PBS, 2% BSA, 51.3 ng/ul salmon testes DNA, 50 uM zinc acetate, 200 nM TF, 25 C, 1 h; high values mean tight binding. The settings on record: protein: recombinant; tags: N-terminal polyhistidine and DsRed monomer fusion (pET32a); label: CyDye5-dUTP incorporated in the synthesized complementary strand; 3' TTTTT single-stranded linker to array surface; dsDNA, one strand shown. Summed up:
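Binding signal here means per-feature fluorescence intensity in arbitrary units. The values were read on an Axon 4000B scanner after a custom Agilent array, double-stranded by primer extension with Cy5-dUTP, was incubated with 200 nM protein at 25 °C for 1 h in PBS with 2% BSA, salmon testes DNA and 50 µM zinc acetate, then washed. The proteins were transcription factors with an N-terminal polyhistidine tag and DsRed, expressed in E. coli BL21-CodonPlus and purified on Ni–NTA.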
With “GCTATTTGTGCAAAAGCTTTTCTCTTCTTTCTTAGTACAACGGAGTCACCTAGTGCAG”, the binding signal is 9970 fluorescence intensity (a.u.). Consider “TCTCGCCACCTTCGCCTCCATCTCATCGACCGCCCACTTCCGGAGTCACCTAGTGCAG”, for which the binding signal is 12800 fluorescence intensity (a.u.). As to “ACGTCACCAAGTACGCGTCACTCCTCGCCGCCGGCAACTCCGGAGTCACCTAGTGCAG”, the binding signal is 8700 fluorescence intensity (a.u.). On to “TTGTTTTATCACTCATAGTCTTTTAAGTGTGGTTTATATCCGGAGTCACCTAGTGCAG”, for which the binding signal was 8670 fluorescence intensity (a.u.). With “ACACGGGCCCCGGACTCCTTCTGCAGCAAGTTACAAGCCACGGAGTCACCTAGTGCAG”, the binding signal is 8150 fluorescence intensity (a.u.). With “AGAAGTTGATTTGGGGTTGCGCTATATCTATTAAAGAGTACGGAGTCACCTAGTGCAG”, the binding signal is 9180 fluorescence intensity (a.u.).

In the case of “TCTGCAGCTTCCATCCGTCGCCGTAGTCGGCGAGCGGCGCCGGAGTCACCTAGTGCAG”, the binding signal is 8090 fluorescence intensity (a.u.).

Take “GGACTTAAAAGTTTTAGTCCCATCTGAACAGCGTCTTAATCGGAGTCACCTAGTGCAG”: the binding signal was 8330 fluorescence intensity (a.u.). Consider “GTCGCCGCACACGCCACAGTCGTCGTTGCACACACGCGCCCGGAGTCACCTAGTGCAG”, for which the binding signal is 8250 fluorescence intensity (a.u.).

“AGGTCTTCACTATGCACCTGCACATTGTAGCTCGATTACCCGGAGTCACCTAGTGCAG”: the binding signal was 8420 fluorescence intensity (a.u.). Then “CGTCCCGTTCACACCACCACCGTCTCGTCGCCTCGTCGGCCGGAGTCACCTAGTGCAG”, with 9900 fluorescence intensity (a.u.); and “GCCACAATAAAATATTATCCACATATGGCAGTGTTCGTTTCGGAGTCACCTAGTGCAG”, with 8250 fluorescence intensity (a.u.); and “GATGTGAATCACCCTTTGCTTTGCTGAATCTACTCCTACACGGAGTCACCTAGTGCAG”, with 10600 fluorescence intensity (a.u.).

As to “TTGCTTGTCTGTTTGTTTTATTTATTTATGACGTCATTATCGGAGTCACCTAGTGCAG”, the binding signal is 12600 fluorescence intensity (a.u.). “CGGTTTTCTTAGTGACCAACTTGCCCTTTTGCCTTATCCCCGGAGTCACCTAGTGCAG”: the binding signal is 8420 fluorescence intensity (a.u.). Then “GCGGACAAGTCCTTGATTCAGTCCACTCGTCTTGATTATTCGGAGTCACCTAGTGCAG”, with 8780 fluorescence intensity (a.u.). On to “ATATGGCATTGTTTCTGTGTTATTCAGGCGCACCTTTAAACGGAGTCACCTAGTGCAG”, for which the binding signal was 10100 fluorescence intensity (a.u.). Regarding “GCTAAGGTAAGCTCCATCTGCTTCTGATACACACACTCACCGGAGTCACCTAGTGCAG”, the binding signal is 8590 fluorescence intensity (a.u.). In the case of “AGCTGCTTAGTTGGGCACTTTGAGTTGTGATATATTAATTCGGAGTCACCTAGTGCAG”, the binding signal is 9180 fluorescence intensity (a.u.). Then “TTTTTATGGTTTAATGTTTCTGTATTTGCTACCGTTTTCCCGGAGTCACCTAGTGCAG”, with 11600 fluorescence intensity (a.u.). As for “GTATTTTCGCGTTCCAAAATCTGTTCGCTGGACCCGGCCGCGGAGTCACCTAGTGCAG”, the binding signal was 9170 fluorescence intensity (a.u.). Regarding “CTTCTCCTTGCACCTGTTGACCGCTAGCACCGCGGCTTCCCGGAGTCACCTAGTGCAG”, the binding signal was 13700 fluorescence intensity (a.u.). Turning to “TTAATGGGTTTTTTGTGCTAATTATTCAGTCAACCTCTGCCGGAGTCACCTAGTGCAG”, the binding signal was 8920 fluorescence intensity (a.u.). On to “TCTACCCGCAGCGTGCTCACATGGCTCACAGCTTCCGTTCCGGAGTCACCTAGTGCAG”, for which the binding signal is 9180 fluorescence intensity (a.u.). Consider “AAATTGTAGATAGCTTGTTTGTGCATAATCCTTTTGTTTTCGGAGTCACCTAGTGCAG”, for which the binding signal was 9960 fluorescence intensity (a.u.). On to “GGGCTTTTAAATTTGGTTTATATTGAATCCTCTACCGTTACGGAGTCACCTAGTGCAG”, for which the binding signal is 10700 fluorescence intensity (a.u.).

Take “TTTTGTTTGTTTTCATTCGGCGTCGCCGAAGGGGTGGAACCGGAGTCACCTAGTGCAG”: the binding signal was 8380 fluorescence intensity (a.u.). Then “GATTCTATTACCGGATTGGGTTTCTATGTATGCAGTTGTTCGGAGTCACCTAGTGCAG”, with 12700 fluorescence intensity (a.u.); and “TACTTTTCGTTTGCAAATATGTCGTTTCGCTTATTCCGCGCGGAGTCACCTAGTGCAG”, with 13800 fluorescence intensity (a.u.). With “TCCCAGATCTCACACTCCATCTCGCGAGCGCGCCGACGCGCGGAGTCACCTAGTGCAG”, the binding signal was 9610 fluorescence intensity (a.u.). On to “GTTGACGTCTCCCAAGTGCCACACCCGCCGCCACGTCACTCGGAGTCACCTAGTGCAG”, for which the binding signal is 8880 fluorescence intensity (a.u.).

“GATGTACGTCCAGCTGTCCTGCTCCAAATTTCGTTGTTACCGGAGTCACCTAGTGCAG”: the binding signal is 8130 fluorescence intensity (a.u.).

As to “GTTGGTTAAAAAGTCAACGACGTCATATATTAAAATACGGCGGAGTCACCTAGTGCAG”, the binding signal is 9110 fluorescence intensity (a.u.). The same measure for “TCTCCGTCGCCTTCTGATCCCCGCGCGCGCGGCTGCCTATCGGAGTCACCTAGTGCAG”: 9390 fluorescence intensity (a.u.); for “GATAAGACAAACCACCGTGCTCCGCCGCGTCGCTCACTCTCGGAGTCACCTAGTGCAG”: 8170 fluorescence intensity (a.u.). For the sequence “CCTCTAACTCTCTATCCACTTCCTTAGCTTCCTTCTGTCGCGGAGTCACCTAGTGCAG”, the binding signal was 8390 fluorescence intensity (a.u.). “CCTATATTTAATACTTTATGCTGCTGTTCAAACGTTCGATCGGAGTCACCTAGTGCAG”: the binding signal was 8140 fluorescence intensity (a.u.). For “GCCACATTACCGCCACTTATGACAAGTACTAAGTCAAACCCGGAGTCACCTAGTGCAG”, the binding signal was 8790 fluorescence intensity (a.u.). Turning to “GTGAGTATGTGAGTGTGGTATTGCATATATTATATAATAACGGAGTCACCTAGTGCAG”, the binding signal is 11800 fluorescence intensity (a.u.).

In the case of “AAGCACAACTTTTCATTTTTTATATTTGCACATTTTATTTCGGAGTCACCTAGTGCAG”, the binding signal is 12900 fluorescence intensity (a.u.). On to “TCACCTCTTTTTTTATATCTTCTTAATCTTATCTTTTTTTCGGAGTCACCTAGTGCAG”, for which the binding signal was 9150 fluorescence intensity (a.u.). Take “GAGCAGTTCCATCACCGTCGCACTCTGTCTCCTTGATCCGCGGAGTCACCTAGTGCAG”: the binding signal was 14400 fluorescence intensity (a.u.).

For the origin of these results see paper PMC7819943, “Rice protein-binding microarrays: a tool to detect cis-acting elements near promoter regions in rice”.
